According to paper doi:10.1101/2021.03.10.434793:
Results are given in words; binding and its absence hold for the method and conditions named. In cells and extracts the contact can be indirect. Some entries that bind do so weakly or less than the wild type. Tags and fused reporters may be left off the sequences shown.

Biological target: T1, RanGAP1, non-sumoylated form, endogenous (human (endogenous in Jurkat)) (UniProt P46060)
T1 sequence: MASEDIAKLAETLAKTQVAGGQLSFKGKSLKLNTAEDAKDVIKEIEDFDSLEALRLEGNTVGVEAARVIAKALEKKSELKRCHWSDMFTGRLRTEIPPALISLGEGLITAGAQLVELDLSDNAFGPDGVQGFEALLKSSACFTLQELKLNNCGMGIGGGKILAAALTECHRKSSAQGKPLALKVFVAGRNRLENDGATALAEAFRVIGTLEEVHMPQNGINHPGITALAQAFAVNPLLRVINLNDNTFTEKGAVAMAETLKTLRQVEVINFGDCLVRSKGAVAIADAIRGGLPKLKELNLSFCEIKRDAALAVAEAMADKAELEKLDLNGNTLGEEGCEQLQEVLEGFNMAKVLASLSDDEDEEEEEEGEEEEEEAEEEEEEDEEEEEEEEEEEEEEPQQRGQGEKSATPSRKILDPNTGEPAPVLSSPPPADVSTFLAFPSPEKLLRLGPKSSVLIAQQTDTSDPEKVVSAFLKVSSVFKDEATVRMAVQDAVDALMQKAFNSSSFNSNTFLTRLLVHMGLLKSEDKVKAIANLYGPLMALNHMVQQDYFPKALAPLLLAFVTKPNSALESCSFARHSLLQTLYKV
Experiment: co-IP

binding: binds
B1: c-Myc-tagged PKC-θ-A148E (enzyme, UniProt Q04759 1-706)
chain: MSPFLRIGLSNFDCGSCQSCQGEAVNPYCAVLVKEYVESENGQMYIQKKPTMYPPWDSTFDAHINKGRVMQIIVKGKNVDLISETTVELYSLAERCRKNNGKTEIWLELKPQGRMLMNARYFLEMSDTKDMNEFETEGFFALHQRRGEIKQAKVHHVKCHEFTATFFPQPTFCSVCHEFVWGLNKQGYQCRQCNAAIHKKCIDKVIAKCTGSAINSRETMFHKERFKIDMPHRFKVYNYKSPTFCEHCGTLLWGLARQGLKCDACGMNVHHRCQTKVANLCGINQKLMAEALAMIESTQQARCLRDTEQIFREGPVEIGLPCSIKNEARPPCLPTPGKREPQGISWESPLDEVDKMCHLPEPELNKERPSLQIKLKIEDFILHKMLGKGSFGKVFLAEFKKTNQFFAIKALKKDVVLMDDDVECTMVEKRVLSLAWEHPFLTHMFCTFQTKENLFFVMEYLNGGDLMYHIQSCHKFDLSRATFYAAEIILGLQFLHSKGIVYRDLKLDNILLDKDGHIKIADFGMCKENMLGDAKTNTFCGTPDYIAPEILLGQKYNHSVDWWSFGVLLYEMLIGQSPFHGQDEEELFHSIRMDNPFYPRWLEKEAKDLLVKLFVREPEKRLGVRGDIRQHPLFREINWEELERKEIDPPFRPKVKSPFDCSNFDKEFLNEKPRLSFADRALINSMDQNMFRNFSFMNPGMERLIS
